This passage reports binding results from publication PMC9728970.

No constants are given. Whether binding was seen depends on the method and setting. Binding seen in cells or lysates may run through a third protein. Some entries that bind do so weakly or less than the wild type. Tags and fused reporters may be left off the sequences shown.

This assay addresses T1, HA-PRMT4 (UniProt Q86X55).
T1 sequence: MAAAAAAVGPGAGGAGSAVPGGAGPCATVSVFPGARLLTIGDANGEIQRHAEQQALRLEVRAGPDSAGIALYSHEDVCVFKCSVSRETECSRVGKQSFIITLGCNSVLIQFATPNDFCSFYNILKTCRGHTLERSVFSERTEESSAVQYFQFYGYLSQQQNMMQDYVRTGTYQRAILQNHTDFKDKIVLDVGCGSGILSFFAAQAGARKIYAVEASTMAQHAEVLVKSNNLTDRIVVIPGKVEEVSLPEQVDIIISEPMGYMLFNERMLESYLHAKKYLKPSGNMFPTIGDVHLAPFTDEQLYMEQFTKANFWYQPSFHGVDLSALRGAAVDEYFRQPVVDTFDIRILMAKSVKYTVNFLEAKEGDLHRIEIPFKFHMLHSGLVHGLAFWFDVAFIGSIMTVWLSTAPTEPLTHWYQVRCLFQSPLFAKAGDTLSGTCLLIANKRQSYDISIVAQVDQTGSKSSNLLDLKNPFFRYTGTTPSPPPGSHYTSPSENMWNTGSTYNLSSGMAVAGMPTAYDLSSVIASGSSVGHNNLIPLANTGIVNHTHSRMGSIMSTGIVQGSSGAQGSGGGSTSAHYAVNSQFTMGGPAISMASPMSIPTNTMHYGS
The experiment in a line: co-IP; HA-tag IP from whole-cell lysate of HEK293T cells transfected with or without HA-PRMT2 or HA-PRMT4; immunoblot. A general note: A western blot detects proteins with antibodies after separation by electrophoresis.

In the case of “BRD4 in HEK293T lysate (from UniProt O60885 1-1362) (other; other documents disagree on this pair)”, the binding result was “binds”.
